Results as given in article PMC5399295 (Nature Communications, 2017).
Results are given in words; binding and its absence hold for the method and conditions named. In cells and extracts the contact can be indirect. Some entries that bind do so weakly or less than the wild type.

Amino acid sequences for entries named in this document (tags omitted). A change or cut given only in a name is not applied to a line headed by its entry. Residues count along the entry.
UniProt P63010: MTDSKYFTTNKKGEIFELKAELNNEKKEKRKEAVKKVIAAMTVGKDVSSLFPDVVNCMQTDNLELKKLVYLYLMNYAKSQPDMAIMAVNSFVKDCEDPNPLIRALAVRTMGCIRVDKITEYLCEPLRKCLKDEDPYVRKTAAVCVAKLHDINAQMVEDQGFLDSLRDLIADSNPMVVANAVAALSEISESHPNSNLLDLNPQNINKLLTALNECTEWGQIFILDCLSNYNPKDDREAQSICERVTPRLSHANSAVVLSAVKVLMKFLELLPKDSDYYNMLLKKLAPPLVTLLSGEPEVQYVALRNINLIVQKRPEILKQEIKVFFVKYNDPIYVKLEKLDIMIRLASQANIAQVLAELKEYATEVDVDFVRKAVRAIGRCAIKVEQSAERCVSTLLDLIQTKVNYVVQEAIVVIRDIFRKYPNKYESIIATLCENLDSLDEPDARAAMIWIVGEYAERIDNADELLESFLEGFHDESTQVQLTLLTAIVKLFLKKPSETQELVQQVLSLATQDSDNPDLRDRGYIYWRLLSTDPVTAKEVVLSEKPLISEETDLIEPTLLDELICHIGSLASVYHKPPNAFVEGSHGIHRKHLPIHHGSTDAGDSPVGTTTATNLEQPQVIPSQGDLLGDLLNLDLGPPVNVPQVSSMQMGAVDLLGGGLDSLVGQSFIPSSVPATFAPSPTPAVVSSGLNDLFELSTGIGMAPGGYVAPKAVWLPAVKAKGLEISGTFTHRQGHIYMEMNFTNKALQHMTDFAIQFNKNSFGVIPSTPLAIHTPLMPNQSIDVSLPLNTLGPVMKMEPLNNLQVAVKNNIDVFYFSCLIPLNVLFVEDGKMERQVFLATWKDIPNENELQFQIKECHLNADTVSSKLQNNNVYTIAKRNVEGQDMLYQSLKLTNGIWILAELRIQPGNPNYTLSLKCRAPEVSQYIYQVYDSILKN
GST-β2-adaptin(592–937): residues 592-937 of P63010
UniProt P49407: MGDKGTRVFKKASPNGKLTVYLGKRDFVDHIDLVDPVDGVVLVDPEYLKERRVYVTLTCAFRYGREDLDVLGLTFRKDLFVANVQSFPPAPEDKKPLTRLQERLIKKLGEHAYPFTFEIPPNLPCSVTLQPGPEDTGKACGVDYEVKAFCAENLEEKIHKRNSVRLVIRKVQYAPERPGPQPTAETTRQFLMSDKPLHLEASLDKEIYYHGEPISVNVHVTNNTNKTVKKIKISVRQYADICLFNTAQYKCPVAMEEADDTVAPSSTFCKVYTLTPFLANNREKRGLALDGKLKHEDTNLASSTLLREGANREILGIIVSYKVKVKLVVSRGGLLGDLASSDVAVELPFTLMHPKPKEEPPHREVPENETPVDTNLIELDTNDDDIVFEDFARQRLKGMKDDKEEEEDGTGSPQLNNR
UniProt P32121: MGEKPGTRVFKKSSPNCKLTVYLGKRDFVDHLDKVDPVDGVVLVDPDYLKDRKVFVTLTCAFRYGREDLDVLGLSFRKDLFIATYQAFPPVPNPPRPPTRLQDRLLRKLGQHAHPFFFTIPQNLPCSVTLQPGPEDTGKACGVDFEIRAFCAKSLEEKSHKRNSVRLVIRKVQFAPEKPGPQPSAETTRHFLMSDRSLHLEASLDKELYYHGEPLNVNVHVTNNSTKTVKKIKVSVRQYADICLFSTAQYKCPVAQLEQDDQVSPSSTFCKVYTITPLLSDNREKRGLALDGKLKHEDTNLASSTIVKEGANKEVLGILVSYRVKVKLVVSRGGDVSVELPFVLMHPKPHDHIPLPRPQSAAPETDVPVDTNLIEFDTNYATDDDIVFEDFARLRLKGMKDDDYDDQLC

Assays:
[1] = target: GST-β2-adaptin(592–937) (human) (UniProt P63010); assay: pull-down; 7 μg GST-β2-adaptin(592–937) on glutathione-sepharose beads, pre-incubated with DMSO or Barbadin, then lysate of HEK293T cells transfected with Flag-β-arrestin1, 2 h at 4 °C; blots with anti-Flag and anti-clathrin heavy chain; only the target purified
[2] = target: endogenous β2-adaptin (AP2 complexes) (human (endogenous in HEK293SL)) (UniProt P63010); assay: co-IP; HEK293SL cells expressing V2R and Flag-β-arrestin2; DMSO or Barbadin (50 μM) 20 min, AVP (1 μM) 2.5 or 5 min; cross-linked with DSP (2 mM); RIPA lysate; IP with anti-AP1/2 antibody, blots with anti-Flag, anti-epsin, anti-adaptin
β2-adaptin-YFP (human) = β2-adaptin-YFP (human) (UniProt P63010); assay: FRET or BRET; living HEK293T cells stably expressing β2-adaptin-YFP, transfected with β-arrestin1-RlucII or β-arrestin2-RlucII and V2R, β2AR or AT1R; agonist (AVP 100 nM, ISO 10 μM or AngII 100 nM) at room temperature; pre-incubation with DMSO or compounds (Barbadin 100 μM); Tyrode's buffer

Substance | binding (β2-adaptin-YFP (human)) | other results
Flag-β-arrestin1 (from UniProt P49407 1-418) | – | binding [1]: binds
Flag-β-arrestin2 (from UniProt P32121 1-409) | – | binding [2]: binds
β-arrestin1-RlucII (from UniProt P49407 1-418) | binds | –
β-arrestin2-RlucII (from UniProt P32121 1-409) | binds | –
